Source: patent publication US11427805B2, “Methods of producing human foregut endoderm cells expressing PDX1 from human definitive endoderm” (ViaCyte, Inc., priority 2005, dated 2022)
At least one structure is not confirmed: it was looked up by name or label, or the drawing left a doubt.

Key:
Format in all cases: cell-based, human
[1] = tested on: definitive endoderm; assay: Dorsal / ventral / PDX1-negative foregut endoderm differentiation from definitive endoderm (marker gene expression)
[2] = tested on: PDX1 gene expression; assay: Q-PCR of PDX1 gene expression in hESC-derived definitive endoderm cultures; details: FIG. 35
Description: (§1) Human embryonic stem cells were cultured with or without activins for four days. On day four, 1 μM RA and 50 ng/ml FGF-10 were added to the cell culture. Forty-eight hours after the RA/FGF-10 addition, the expression of the PDX1 marker gene and other marker genes not specific to foregut endoderm were quantitated by Q-PCR.
(§2) As in the previous Example, hESCs were cultured with or without activins for four days. On day four, the cells were treated with one of the following: 1 μM RA alone; 1 μM RA in combination with either FGF-4 or FGF-10; or 1 μM RA in combination with both FGF-4 and FGF-10. The expression of PDX1, SOX7 and NFM were quantitated by Q-PCR ninety six hours after RA or RA/FGF.
Human embryonic stem cells were cultured with or without activins for four days. […] The expression of the PDX1 marker gene as well as other markers not specific for foregut endoderm were quantitated by Q-PCR. […]
Human embryonic stem cells were induced to differentiate to definitive endoderm by treatment of undifferentiated hESCs grown on mouse embryonic fibroblast feeders with high dose activin A (50 ng/ml) in low serum/RPMI for 6 days. […] The no activin A control culture (NF) was provided neither activin A nor activin B. This RA/activin treatment was carried out for 3 days at which time PDX1 gene expression was measured by Q-PCR from duplicate cell samples. […]

[3] = tested on: hESCyt-25; assay: Retinoic acid treatment of hESCyt-25 embryoid bodies in suspension (visceral endoderm markers); details: EBs in suspension, by 54 hours of treatment
[4] = tested on: PDX1 protein; assay: Immunoprecipitation and Western blot of PDX1 from RA-treated definitive endoderm cells; details: day 8 and day 9 cells, three and four days after the start of RA treatment (FIG. 44)
[5] = tested on: definitive endoderm cells; assay: Q-PCR of marker genes other than PDX1 in hESC-derived definitive endoderm cultures
Description: as §1, §2
Human embryonic stem cells were cultured with or without activins for four days. On day four, FGF-10 at 50 ng/ml was added to the culture in combination with RA at 0.04 μM, 0.2 μM or 1.0 μM. The expression of the PDX1 marker gene as well as other markers not specific for foregut endoderm were quantitated by Q-PCR.
Human embryonic stem cells were induced to differentiate to definitive endoderm by treatment of undifferentiated hESCs grown on mouse embryonic fibroblast feeders with high dose activin A (50 ng/ml) in low serum/RPMI for 6 days. The FBS dose was 0% on day one, 0.2% on day two and 2% on days 3-6. The negative control for definitive endoderm production (NF) received 2% FBS/RPMI with no added activin A. In order to induce PDX1 expression, each of the cultures received retinoic acid at 2 μM in 2% FBS/RPMI on day 6. The cultures treated with activin A on days one through five were provided with different dosing combinations of activin A and activin B or remained in activin A alone at 50 ng/ml. The no activin A control culture (NF) was provided neither activin A nor activin B. This RA/activin treatment was carried out for 3 days at which time PDX1 gene expression was measured by Q-PCR from duplicate cell samples.
The definitive endoderm cultures generated by 5 days of activin A treatment were then induced to differentiate to PDX1 expressing endoderm by the addition of RA in 2% FBS/RPMI containing activin A at 25 ng/ml for four days. The RA was 2 μM for the first two days of addition, 1 μM on the third day and 0.5 μM on the fourth day. This base medium for PDX1 induction was provided fresh (2A25R) or after conditioning for 24 hours by one of four different cell populations. Conditioned media (CM) were generated from either mouse embryonic fibroblasts (MEFCM) or from hESCs that were first differentiated for 5 days by one of three conditions; i) 3% FBS/RPMI (CM2), or ii) activin A (CM3) or iii) bone morphogenic protein 4 (BMP4) (CM4). Activin A or BMP4 factors were provided at 100 ng/ml under the same FBS dosing regimen described above (0.2%, 0.5%, 2%). These three different differentiation paradigms yield three very different populations of human cells by which the PDX1 induction media can be conditioned. The 3% FBS without added growth factor (NF) yields a heterogeneous population composed in large part of extraembryonic endoderm, ectoderm and mesoderm cells. The activin A treated culture (A100) yields a large proportion of definitive endoderm and the BMP4 treated culture (B100) yields primarily trophectoderm and some extraembryonic endoderm.

[6] = tested on: SOX17 gene expression; assay: Q-PCR of SOX17 gene expression in differentiating hESCs; details: FIG. 7A
Description: In the following experiments, real-time quantitative RT-PCR (Q-PCR) was the primary assay used for screening the effects of various treatments on hESC differentiation. In particular, real-time measurements of gene expression were analyzed for multiple marker genes at multiple time points by Q-PCR. Marker genes characteristic of the desired as well as undesired cell types were evaluated to gain a better understanding of the overall dynamics of the cellular populations. The strength of Q-PCR analysis includes its extreme sensitivity and relative ease of developing the necessary markers, as the genome sequence is readily available. […] Additionally, Q-PCR provides a mechanism by which to evaluate the success of a differentiation protocol in a quantitative format at semi-high throughput scales of analysis.
The approach taken here was to perform relative quantitation using SYBR Green chemistry on a Rotor Gene 3000 instrument (Corbett Research) and a two-step RT-PCR format. […]
To generate PCR template, total RNA was isolated using RNeasy (Qiagen) and quantitated using RiboGreen (Molecular Probes). […] Fluorescence data was collected during the last 15 seconds of each extension phase. A three point, 10-fold dilution series was used to generate the standard curve for each run and cycle thresholds (Ct's) were converted to quantitative values based on this standard curve. […]

`CC1=C(/C=C/C(C)=C/C=C/C(C)=C/C(=O)O)C(C)(C)CCC1` [retinoic acid] was tested, and the PDX1 gene expression ([1]; dorsal (RA 2 μM, activin A 25 ng/ml) or ventral (BMP4 3 ng/ml, FGF10 50 ng/ml) procedure (FIG. 50B)) was “strong induction of PDX1”, the “HB9 (dorsal endoderm marker) expression” value ([1]; dorsal or ventral procedure (FIG. 50C)) was “maintenance of HB9 expression” and the “expression of ventral liver markers HHEX and albumin” value ([1]; dorsal or ventral procedure (FIGS. 50A, 50D)) was “no induced expression of HHEX or albumin”. For the same compound, the “PDX1 gene expression in definitive endoderm cells” value [2] was “robust increase”, the “expression of visceral endoderm markers AFP and SOX7” value [3] was “high levels” and the “PDX1 protein in immunoprecipitates” value [4] was “positive for PDX1 protein”. For the same compound, the “effect of RA dose on relative expression of neural (SOX1) or neuronal (NFM) markers” value ([5]; 0.04, 0.2, 1.0 μM (FIG. 38F-G)) was “essentially no effect”, the “expression of visceral endoderm (SOX7, AFP), neural (SOX1, ZIC1) or neuronal (NFM) markers” value ([5]; FIG. 36A-F) was “without increasing” and the “anterior-posterior marker gene expression” value ([5]; RA 0.04 μM with FGF-10 at 50 ng/ml (FIG. 38D)) was “preferentially induced a marker of hindgut endoderm (HOXA13)”. The “anterior-posterior marker gene expression” value ([5]; RA 0.2 μM with FGF-10 at 50 ng/ml) was “induced midgut endoderm markers (CDX1, HOXC6)”, the “anterior-posterior marker gene expression” value ([5]; RA 1 μM with FGF-10 at 50 ng/ml (FIG. 38B)) was “preferentially induced expression of anterior endoderm marker (HOXA3)” and the “SOX17 gene expression relative to the undifferentiated control media (SR20)” value [6] was “strongly suppresses SOX17 expression”.
